Literature values in US20260000657A1, “ANTI-ANGIOGENIC THERAPY AS TREATMENT FOR BENIGN UTERINE DISORDERS” (STICHTING AMSTERDAM UMC, priority 2022, published 2026).

Test system: tamoxifen-induced adenomyosis murine model
Settings: treatment started at day 6; cited from earlier work

COc1ccc2cc([C@H](C)C(=O)O)ccc2c1 [naproxen]
Vessel density: significant reduction in vessel density
